Measured data: PubChem BioAssay AID1259308 (NCATS, 2017)

- Purpose: 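Candidate targets for better recombinant protein yield in mammalian cells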 (primary screen)
- Cells: human HEK293 embryonic kidney cells stably expressing firefly luciferase (HEK-CMV-Luc2-Hygro)
- Knock-down reagent: single siRNA against human genes, 0.8 pmol siRNA per well
- Time to read-out: 72 h
- Measured: 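Luciferase light (ONE-Glo) measured on one replicate plate set and viability (CellTiter-Glo) on the other, scaled to a negative control siRNA, with robust z-scores and luciferase per cell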
- Scale: total luciferase, z-score: higher = more reporter protein produced
- Rule for the call: 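Active when the median/MAD z-score for overall luciferase is greater than 3; a gene was taken forward for validation with new siRNAs if at least two of its three siRNAs passed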
- Calls: active = raised luciferase; inactive = no rise
Shown is one part, drawn at random, of about 59,000 deposited reagents. In the full data, about 1,510 (2.6%) are marked active. 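Calls use total luciferase alone and ignore viability, so some active siRNAs may act by altering cell number.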 The numbers tell different reagents against one gene apart. Further read-outs or replicates are left out here.

For ASPHD1 #1, how do the results read?
total luciferase, z-score: 1.97; outcome: inactive

How did the screen score ASPHD1 #2?
total luciferase, z-score: -1.44; outcome: inactive

For ASPHD1 #3, how do the results read?
total luciferase, z-score: 0.788; outcome: inactive

For FGD6 #1, how do the results read?
total luciferase, z-score: -1.21; outcome: inactive

For FGD6 #2, what does the deposit list?
total luciferase, z-score: -1.25; outcome: inactive

What is on record for FGD6 #3?
total luciferase, z-score: 0.629; outcome: inactive

How did the screen score COMMD7 #1?
total luciferase, z-score: -0.201; outcome: inactive

What did the screen give for COMMD7 #2?
total luciferase, z-score: -1.24; outcome: inactive

For COMMD7 #3, how do the results read?
total luciferase, z-score: 0.354; outcome: inactive

With MEP1A #1, what was measured?
total luciferase, z-score: -0.59; outcome: inactive

How did the screen score MEP1A #2?
total luciferase, z-score: -0.25; outcome: inactive

Which result is listed for MEP1A #3?
total luciferase, z-score: 1.68; outcome: inactive

What did the screen give for CRISP2 #1?
total luciferase, z-score: 0.501; outcome: inactive

What did the screen give for CRISP2 #2?
total luciferase, z-score: 1.2; outcome: inactive

For CRISP2 #3, what was measured?
total luciferase, z-score: -2.58; outcome: inactive

With ATXN7L2 #1, how do the results read?
total luciferase, z-score: 0.199; outcome: inactive

Which result is listed for ATXN7L2 #2?
total luciferase, z-score: -1.07; outcome: inactive

How did the screen score ATXN7L2 #3?
total luciferase, z-score: 1.65; outcome: inactive

Which result is listed for HSPBP1 #1?
total luciferase, z-score: 0.236; outcome: inactive

With HSPBP1 #2, what was measured?
total luciferase, z-score: 0.613; outcome: inactive

For HSPBP1 #3, how do the results read?
total luciferase, z-score: 0.0869; outcome: inactive

With TNNC2 #1, how do the results read?
total luciferase, z-score: -0.756; outcome: inactive

What did the screen give for TNNC2 #2?
total luciferase, z-score: 0.973; outcome: inactive

With TNNC2 #3, what was measured?
total luciferase, z-score: 0.292; outcome: inactive

With ZNF286B #1, what was measured?
total luciferase, z-score: -0.135; outcome: inactive

What did the screen give for ZNF286B #2?
total luciferase, z-score: 2.3; outcome: inactive

How did the screen score ZNF286B #3?
total luciferase, z-score: 0.729; outcome: inactive

What is on record for KLRB1 #1?
total luciferase, z-score: -1.18; outcome: inactive

What did the screen give for KLRB1 #2?
total luciferase, z-score: 3.05; outcome: active

What did the screen give for KLRB1 #3?
total luciferase, z-score: 0.656; outcome: inactive

For GMNN #1, what does the deposit list?
total luciferase, z-score: -0.416; outcome: inactive

With GMNN #2, what does the deposit list?
total luciferase, z-score: -0.733; outcome: inactive

With GMNN #3, what was measured?
total luciferase, z-score: 0.273; outcome: inactive

How did the screen score CHTOP #1?
total luciferase, z-score: 0.196; outcome: inactive

What did the screen give for CHTOP #2?
total luciferase, z-score: -0.26; outcome: inactive

What is on record for CHTOP #3?
total luciferase, z-score: -0.205; outcome: inactive

Which result is listed for PPIH #1?
total luciferase, z-score: 0.213; outcome: inactive

What did the screen give for PPIH #2?
total luciferase, z-score: 1.37; outcome: inactive

What did the screen give for PPIH #3?
total luciferase, z-score: 2.41; outcome: inactive

What is on record for GNAS #1?
total luciferase, z-score: -0.776; outcome: inactive

For GNAS #2, what was measured?
total luciferase, z-score: -1.54; outcome: inactive

What did the screen give for GNAS #3?
total luciferase, z-score: -1.43; outcome: inactive

Not a retest: an excerpt of the list.
PPIH #1: total luciferase, z-score = 0.213; outcome = inactive
PPIH #2: total luciferase, z-score = 1.37; outcome = inactive
PPIH #3: total luciferase, z-score = 2.41; outcome = inactive
GNAS #1: total luciferase, z-score = -0.776; outcome = inactive
